Experimental data: PubChem BioAssay AID652259 (Drosophila RNAi Screening Center, 2013)

- Purpose: 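Knock-downs that push a Wingless-driven reporter up or down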 (primary screen)
- System: Drosophila clone 8 imaginal disc epithelial cells
- Knock-down reagent: long dsRNA against Drosophila genes
- Treatment: pathway stimulated by co-transfected Wingless expression plasmid
- Measured: 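Dual luciferase reads per well after Wingless plasmid stimulation: reporter firefly light and Renilla control light; activity is firefly divided by Renilla, a ratio not deposited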
- Reading the numbers: firefly reporter light: higher = more Wg reporter light, before normalisation; Renilla control light: higher = more transfected or surviving cells
- Hit rule: 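a knock-down is a candidate when at least two out of four statistical tests show it departing from its plate mean; one test alone signals a weak candidate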
- Meaning of the calls: active = candidate regulator (raises or lowers reporter); inactive = not a candidate
In all, the deposit lists about 22,000 reagents; below is an unselected part of those that have a named target and a result. Of all reagents, 233 (1.1%) were called active. 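Light values are raw, unnormalised plate reads; the ratio scores behind the reporter calls were not deposited.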 A plus sign joins genes that one reagent is predicted to hit. No sequences are given here. The record does not give: the amount of reagent, the time to read-out, the dose of the treatment.

With knock-down of Naprt (Nicotinate phosphoribosyltransferase) [DRSC00630] the results were firefly reporter light, replicate 1 = 14297; Renilla control light, replicate 1 = 6001; inactive.
After knock-down of CG17549 [DRSC02625] the results were firefly reporter light, replicate 1 = 14176; Renilla control light, replicate 1 = 4963; inactive.
CG18507 [DRSC01334] showed firefly reporter light, replicate 1 = 19047; Renilla control light, replicate 1 = 9571; inactive.
After knock-down of CG18507 [DRSC01914] the results were firefly reporter light, replicate 1 = 3925; firefly reporter light, replicate 2 = 8873; Renilla control light, replicate 1 = 1602; Renilla control light, replicate 2 = 4105; inactive.
After knock-down of CG4456 + Hsp22 [DRSC11187], the record shows firefly reporter light, replicate 1 = 7241; Renilla control light, replicate 1 = 2676; inactive.
CG4456 + Hsp22 [DRSC11192] gave firefly reporter light, replicate 1 = 9526; Renilla control light, replicate 1 = 2780; inactive.
For CG31827 + CG18478 [DRSC01958], the values are firefly reporter light, replicate 1 = 3514; firefly reporter light, replicate 2 = 6205; Renilla control light, replicate 1 = 1093; Renilla control light, replicate 2 = 2643; inactive.
For VhaM9.7-b (Vacuolar H[+] ATPase M9.7 subunit b) [DRSC11841] the deposit lists firefly reporter light, replicate 1 = 14124; Renilla control light, replicate 1 = 4922; inactive.
For 5-HT1B (5-hydroxytryptamine (serotonin) receptor 1B) [DRSC05031], the entry reads firefly reporter light, replicate 1 = 11126; Renilla control light, replicate 1 = 3128; inactive.
Knock-down of 5-HT1B (5-hydroxytryptamine (serotonin) receptor 1B) [DRSC05769] resulted in: firefly reporter light, replicate 1 = 8841; Renilla control light, replicate 1 = 2040; inactive.
With knock-down of Ocrl (Oculocerebrorenal syndrome of Lowe) [DRSC18576], the record shows firefly reporter light, replicate 1 = 4058; firefly reporter light, replicate 2 = 7079; Renilla control light, replicate 1 = 1655; Renilla control light, replicate 2 = 3249; inactive.
kumpel (kin of rumpel) [DRSC14883] gave firefly reporter light, replicate 1 = 25826; Renilla control light, replicate 1 = 18896; inactive.
Depletion of kumpel (kin of rumpel) [DRSC16459] came out at: firefly reporter light, replicate 1 = 19016; Renilla control light, replicate 1 = 13546; inactive.
Silencing of kumpel (kin of rumpel) [DRSC16460] gave: firefly reporter light, replicate 1 = 27401; Renilla control light, replicate 1 = 23306; inactive.
kumpel (kin of rumpel) [DRSC16461] scored firefly reporter light, replicate 1 = 19220; Renilla control light, replicate 1 = 17308; inactive.
After knock-down of kumpel (kin of rumpel) [DRSC16462] the results were firefly reporter light, replicate 1 = 17286; Renilla control light, replicate 1 = 16712; inactive.
Against kumpel (kin of rumpel) [DRSC16463], the entry reads firefly reporter light, replicate 1 = 18732; Renilla control light, replicate 1 = 19488; inactive.
Silencing of CG10560 [DRSC14256] gave: firefly reporter light, replicate 1 = 17475; Renilla control light, replicate 1 = 19392; inactive.
With knock-down of Obp57e (Odorant-binding protein 57e) [DRSC05891], the record shows firefly reporter light, replicate 1 = 25640; Renilla control light, replicate 1 = 17372; inactive.
For Pldn (Pallidin) [DRSC10137], the entry reads firefly reporter light, replicate 1 = 9315; Renilla control light, replicate 1 = 3872; inactive.
sac (sterile affecting ciliogenesis) [DRSC12237] gave firefly reporter light, replicate 1 = 10156; Renilla control light, replicate 1 = 2832; inactive.
For CrebA (Cyclic-AMP response element binding protein A) [DRSC11122], the entry reads firefly reporter light, replicate 1 = 4273; Renilla control light, replicate 1 = 2098; inactive.
CG42323 [DRSC19629] scored firefly reporter light, replicate 1 = 23114; Renilla control light, replicate 1 = 11352; inactive.
Silencing of CG42323 [DRSC21397] gave: firefly reporter light, replicate 1 = 3.56e5; firefly reporter light, replicate 2 = 3.97e5; Renilla control light, replicate 1 = 2.05e5; Renilla control light, replicate 2 = 1.51e5; inactive.
With knock-down of CG42271 [DRSC19809] the results were firefly reporter light, replicate 1 = 2619; firefly reporter light, replicate 2 = 5265; Renilla control light, replicate 1 = 1312; Renilla control light, replicate 2 = 2310; inactive.
With knock-down of CG42271 [DRSC22894] the results were firefly reporter light, replicate 1 = 5.43e5; firefly reporter light, replicate 2 = 5.27e5; Renilla control light, replicate 1 = 2.54e5; Renilla control light, replicate 2 = 2.43e5; inactive.

2 successive records already listed, for reference:
kumpel (kin of rumpel) [DRSC16463] — firefly reporter light, replicate 1 = 18732; Renilla control light, replicate 1 = 19488; outcome = inactive
CG10560 [DRSC14256] — firefly reporter light, replicate 1 = 17475; Renilla control light, replicate 1 = 19392; outcome = inactive
